Test system: nulliparous parturients in early labour
Assay: Randomized study of labour epidural analgesia maintenance after CSE: PCEA with variable-frequency automated mandatory boluses (vAMB) versus PCEA with basal infusion 5 ml/h (PCEA5)
Assay type: in vivo

CCCN1CCCC[C@H]1C(=O)Nc1c(C)cccc1C [ropivacaine]
time-weighted mean hourly consumption of ropivacaine, inclusive of clinician-administered supplemental boluses (Group PCEA5): 11.1 mg | total amount of ropivacaine used (Group PCEA5): 74.2 mg | time-weighted mean hourly consumption of ropivacaine, inclusive of clinician-administered supplemental boluses (Group vAMB): 10.0 mg | total amount of ropivacaine used (Group vAMB): 62.0 mg

Reference: US10207050B2, “Computer-implemented method for controlling dispensing of a biologically active agent; computer system and software thereof” (SINGAPORE HEALTH SERVICES PTE LTD, priority 2011, dated 2019)
